Patent US20240240126A1, “Microfluidic Barcode-Like Cell Sensor For Microscope-Free Quantitative Detection Of Small Amount Of Cells” (Hong Kong Baptist University, priority 2021, published 2024)
In brackets after ≈: the same amount, converted by molar mass.

Key:
[1] = tested on: E. coli; experiment: AST with the present barcode cell sensor (PP microfluidic AST chip); assay type: cell-based, Escherichia coli (ATCC 25922); conditions: Escherichia coli, read-out: MIC-"barcode" Chip
Procedure: (§1) To conduct an AST on the PP-based AST chip, bacteria were pre-activated inside an incubator for 15 minutes at 37° C. before use. At the beginning of a test, the bacteria are injected through Inlet 3; the injection of the bacteria was monitored under the fluorescence microscope (FIG. 24A). After the bacteria were inoculated into the cultivation chambers, antibiotic-doped media and media alone are injected into inlet 1 and inlet 2 at a rate of 1 μL/minute, respectively (FIG. 24B). The AST chip was then incubated on a thermostat platform at 37° C. for 2 hours. To assess AMR, the bacteria inside the culture chambers of the PP AST chip were flushed into the barcode cell sensor at a rate of 1 μL/minute. […] For comparison, AST was also performed using the traditional broth microdilution method as shown in FIG. 27; the MIC values of the bacteria were assessed as the lowest concentration of antibiotics with no visible growth of bacteria.
As said, the bacteria samples have been flushed into the “barcode” cell sensor after 2 hours incubation, the accumulated bacteria bars with different lengths will be formed. […] Thus, the MIC value of the samples can be assessed by looking at the point (in a specific concentration of a given antibiotic) of the bacterial growth with significant differences using the comparison of the log [slope] values. […]

[2] = tested on: S. aureus; experiment: Broth microdilution AST; assay type: cell-based, Staphylococcus aureus (ATCC 29213); conditions: Staphylococcus aureus, read-out: MIC-Broth Microdilution
Procedure: as §1
(§2) The broth microdilution (BMD) testing of the samples was performed exactly the same according to the approved standard from CLSI and the procedures described in Nature Protocol. […] To assess the MIC values for the samples, the microplates were examined visually and the lowest concentration of the antibiotic which prevents visible growth of the bacteria was recorded as the MIC value of that sample.

[3] = tested on: E. coli; experiment: Broth microdilution AST; assay type: cell-based, Escherichia coli (ATCC 25922); conditions: Escherichia coli, read-out: MIC-Broth Microdilution
Procedure: as §1, §2

[4] = tested on: S. aureus; experiment: AST with the present barcode cell sensor (PP microfluidic AST chip); assay type: cell-based, Staphylococcus aureus (ATCC 29213); conditions: Staphylococcus aureus, read-out: MIC-"barcode" Chip
Procedure: To conduct an AST on the PP-based AST chip, bacteria were pre-activated inside an incubator for 15 minutes at 37° C. before use. At the beginning of a test, the bacteria are injected through Inlet 3; the injection of the bacteria was monitored under the fluorescence microscope (FIG. 24A). After the bacteria were inoculated into the cultivation chambers, antibiotic-doped media and media alone are injected into inlet 1 and inlet 2 at a rate of 1 μL/minute, respectively (FIG. 24B). The AST chip was then incubated on a thermostat platform at 37° C. for 2 hours. To assess AMR, the bacteria inside the culture chambers of the PP AST chip were flushed into the barcode cell sensor at a rate of 1 μL/minute. Gram staining agent was used during the flushing process to make bacteria inside the barcode cell sensor visible be captured by a cell phone camera. For comparison, AST was also performed using the traditional broth microdilution method as shown in FIG. 27; the MIC values of the bacteria were assessed as the lowest concentration of antibiotics with no visible growth of bacteria.

## CC1(C)S[C@@H]2[C@H](NC(=O)[C@H](N)c3ccccc3)C(=O)N2[C@H]1C(=O)O [Ampicillin]
[1]
  MIC: 3 to 4 µg/mL (≈ 8.59 to 11.4 µM)
[2]
  MIC: 1 to 2 µg/mL (≈ 2.86 to 5.72 µM)
[3]
  MIC: 2 to 4 µg/mL (≈ 5.72 to 11.4 µM)
[4]
  MIC: 1.5 to 2 µg/mL (≈ 4.29 to 5.72 µM)

## CN(C)[C@@H]1C(O)=C(C(N)=O)C(=O)[C@@]2(O)C(O)=C3C(=O)c4c(O)cccc4[C@@](C)(O)[C@H]3C[C@@H]12 [Tetracycline, tetracycline]
[1]
  MIC: 1.5 to 2 µg/mL (≈ 3.38 to 4.5 µM)
